Experimental data from patent US12673029B2, “Nanodelivery system based on globulin-1 S allele, preparation method therefor and use thereof” (Zhejiang Gongshang University, priority 2022, dated 2026).

System: wheat GSA protein (globulin-1 S allele)
Experiment: Fluorescence quenching determination of the binding force of wheat GSA protein to curcumin
Experimental: A wheat GSA protein solution and a curcumin solution were mixed in a certain ratio (1:1, 1:2, 1:5, 1:10) at different temperatures (298 K, 303 K, 310 K) for 2 hours. The final concentration of GSA was 1 μM, wherein the molecular weight of GSA was 56.16 KDa and the concentration of curcumin was 1 μM, 2 μM, 5 μM and 10 μM. The excitation spectrum was set at 280 nm, the emission spectrum was from 320 nm to 500 nm, and the recording temperature was 298 K, 303 K, and 310 K.
At an excitation wavelength of 280 nm, tryptophan and tyrosine residues will be excited. Binding of proteins and small molecules will lead to a decrease in fluorescence emission. As the concentration of curcumin increased, the fluorescence intensity decreased constantly and a slight red shift appeared.
Fluorescence quenching can be divided into dynamic quenching and static quenching. A dynamic quenching process can be distinguished by a Stern-Volmer equation: F0/F=1+KSV[Q]=1+Kqτ0[Q] (1)
wherein F0 and F are the GSA fluorescence intensity of the system in the absence and presence of curcumin, respectively; [Q] is the concentration of a quencher curcumin; and Kq is a fluorescence quenching rate constant.
Values for a static quenching mechanism, a binding constant and the number of binding sites can be obtained from a […] equation: log[(F0-F)/F]=log(Ka)+n log[Q] (2)
wherein Ka is a binding constant, [Q] is the concentration of curcumin, and n is the number of binding sites. A log-log plot of log[(F0−F)/F] versus log[Q] was made at 298 K, 303 K, and 310 K, respectively, according to the equation, as shown in FIG. 3. Ka and n at different temperatures were obtained from the intercept and slope.
To determine the action force between GSA and curcumin, the temperature-dependent thermodynamic parameters (ΔG, ΔH, and ΔS) were calculated using the following equations: -lnK==−ΔH/RT+ΔS/RΔG=ΔH−TΔS (3) • wherein R is a gas constant (8.314 J/mol*K), and T is the experimental temperature.

## COc1cc(/C=C/C(=O)CC(=O)/C=C/c2ccc(O)c(OC)c2)ccc1O [curcumin, Curcumin]
298 K
  n (number of binding sites): 1.099
  ΔG: -9.4534 kcal/mol
298 K, 303 K, and 310 K
  n of binding curcumin to GSA: ~1
303 K
  n (number of binding sites): 1.1540
  ΔG: -9.9787 kcal/mol
310 K
  n (number of binding sites): 1.1593
  ΔG: -10.714 kcal/mol
From 298 K, 303 K, 310 K data
  ΔH: 21.855 kcal/mol
  ΔS: 0.105063 kcal/mol
